Measurements taken from the supplement of paper PMC8728848.
This is one part of the list.

Legend:
Assay in all cases: glycan array binding signal (z-score within array); higher = stronger binding
Settings in all cases: glycan notation: IUPAC condensed, linker removed
Gal6S(b1-4)Glc6S = molecular target: Gal6S(b1-4)Glc6S
Procedure, shortened: (§1)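 From the Consortium for Functional Glycomics database, 3228 arrays were curated, keeping only those whose protein sequence was available. Binding is given as a within-array Z-score averaged across arrays sharing a protein sequence and across linkers. Negative Z-scores can be read as non-binding.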

Gal6S(b1-4)GlcNAc = molecular target: Gal6S(b1-4)GlcNAc
Procedure, shortened: as §1

Gal6S(b1-4)GlcNAc6S = molecular target: Gal6S(b1-4)GlcNAc6S
Procedure, shortened: as §1

GalNAc(a1-3)Gal = molecular target: GalNAc(a1-3)Gal
Procedure, shortened: as §1

GalNAc(a1-3)GalNAc = molecular target: GalNAc(a1-3)GalNAc
Procedure, shortened: as §1

[1] = molecular target: GalNAc(a1-3)GalNAc(b1-3)Gal(a1-4)Gal(b1-4)Glc
Procedure, shortened: as §1

[2] = molecular target: GalNAc(a1-3)GalNAc(b1-3)Gal(a1-4)Gal(b1-4)GlcNAc
Procedure, shortened: as §1

GalNAc(b1-3)Gal = molecular target: GalNAc(b1-3)Gal
Procedure, shortened: as §1

[3] = molecular target: GalNAc(b1-3)Gal(a1-4)Gal(b1-4)GlcNAc
Procedure, shortened: as §1

[4] = molecular target: GalNAc(b1-3)Gal(a1-4)Gal(b1-4)GlcNAc(b1-3)Gal(b1-4)Glc
Procedure, shortened: as §1

[5] = molecular target: GalNAc(b1-3)Gal(a1-6)Gal(b1-4)Glc
Procedure, shortened: as §1

GalNAc(b1-3)GalNAc = molecular target: GalNAc(b1-3)GalNAc
Procedure, shortened: as §1

GalNAc(b1-3)GlcNAc = molecular target: GalNAc(b1-3)GlcNAc
Procedure, shortened: as §1

GalNAc(b1-4)Gal(b1-4)Glc = molecular target: GalNAc(b1-4)Gal(b1-4)Glc
Procedure, shortened: as §1

GalNAc(b1-4)GlcNAc = molecular target: GalNAc(b1-4)GlcNAc
Procedure, shortened: as §1

[6] = molecular target: GalNAc(b1-4)GlcNAc(b1-2)Man
Procedure, shortened: as §1

[7] = molecular target: GalNAc(b1-4)GlcNAc(b1-2)Man(a1-3)[GalNAc(b1-4)GlcNAc(b1-2)Man(a1-6)]Man(b1-4)GlcNAc(b1-4)GlcNAc
Procedure, shortened: as §1

[8] = molecular target: GalNAc(b1-4)GlcNAc(b1-3)GalNAc(b1-4)GlcNAc
Procedure, shortened: as §1

GalNAc(b1-4)GlcNAc6S = molecular target: GalNAc(b1-4)GlcNAc6S
Procedure, shortened: as §1

GalNAc(b1-6)GalNAc = molecular target: GalNAc(b1-6)GalNAc
Procedure, shortened: as §1

GalNAc3S(b1-4)GlcNAc = molecular target: GalNAc3S(b1-4)GlcNAc
Procedure, shortened: as §1

GalNAc3S(b1-4)GlcNAc3S = molecular target: GalNAc3S(b1-4)GlcNAc3S
Procedure, shortened: as §1

[9] = molecular target: GalNAc3S(b1-4)[Fuc(a1-3)]GlcNAc
Procedure, shortened: as §1

GalNAc4S6S(b1-4)GlcNAc = molecular target: GalNAc4S6S(b1-4)GlcNAc
Procedure, shortened: as §1

GalNAc6S(b1-4)GlcNAc = molecular target: GalNAc6S(b1-4)GlcNAc
Procedure, shortened: as §1

Glc(a1-4)Glc = molecular target: Glc(a1-4)Glc
Procedure, shortened: as §1

[10] = molecular target: Glc(a1-4)Glc(a1-4)Glc(a1-4)Glc
Procedure, shortened: as §1

Glc(a1-6)Glc(a1-6)Glc = molecular target: Glc(a1-6)Glc(a1-6)Glc
Procedure, shortened: as §1

[11] = molecular target: Glc(a1-6)Glc(a1-6)Glc(a1-6)Glc
Procedure, shortened: as §1

Glc(b1-4)Glc = molecular target: Glc(b1-4)Glc
Procedure, shortened: as §1

Glc(b1-6)Glc = molecular target: Glc(b1-6)Glc
Procedure, shortened: as §1

GlcA(b1-3)Gal = molecular target: GlcA(b1-3)Gal
Procedure, shortened: as §1

GlcA(b1-3)GlcNAc = molecular target: GlcA(b1-3)GlcNAc
Procedure, shortened: as §1

GlcA(b1-6)Gal = molecular target: GlcA(b1-6)Gal
Procedure, shortened: as §1

[12] = molecular target: GlcA3S(b1-3)Gal(b1-4)GlcNAc(b1-2)Man
Procedure, shortened: as §1

[13] = molecular target: GlcA3S(b1-3)Gal(b1-4)GlcNAc(b1-3)Gal(b1-4)Glc
Procedure, shortened: as §1

[14] = molecular target: GlcNAc(a1-3)Gal(b1-4)GlcNAc
Procedure, shortened: as §1

[15] = molecular target: GlcNAc(a1-4)Gal(b1-3)GlcNAc
Procedure, shortened: as §1

[16] = molecular target: GlcNAc(a1-4)Gal(b1-4)GalNAc
Procedure, shortened: as §1

[17] = molecular target: GlcNAc(a1-4)Gal(b1-4)GlcNAc
Procedure, shortened: as §1

[18] = molecular target: GlcNAc(a1-4)Gal(b1-4)GlcNAc(b1-3)Gal(b1-4)Glc
Procedure, shortened: as §1

[19] = molecular target: GlcNAc(a1-4)Gal(b1-4)GlcNAc(b1-3)Gal(b1-4)GlcNAc
Procedure, shortened: as §1

[20] = molecular target: GlcNAc(a1-4)Gal(b1-4)GlcNAc(b1-3)Gal(b1-4)GlcNAc(b1-3)Gal(b1-4)GlcNAc
Procedure, shortened: as §1

[21] = molecular target: GlcNAc(a1-4)Gal(b1-4)GlcNAc(b1-3)Gal(b1-4)[Fuc(a1-3)]GlcNAc(b1-3)Gal(b1-4)[Fuc(a1-3)]GlcNAc
Procedure, shortened: as §1

[22] = molecular target: GlcNAc(a1-6)Gal(b1-4)GlcNAc
Procedure, shortened: as §1

B1: Clone646PsrP (Streptococcus pneumoniae) (protein)
chain: MDHHHHHHHHASENLYFQGAPAINASLNIAKSETKVYTGEGVDSVYRVPIYYKLKVTNDGSKLTFTYTVTYVNPKTNDLGNISSMRPGYSIYNSGTSTQTMLTLGSDLGKPSGVKNYITDKNGRQVLSYNTSTMTTQGSGYTWGNGAQMNGFFAKKGYGLTSSWTVPITGTDTSFTFTPYAARTDRIGINYFNGGGKVVESSTTSQSLSQSKSLSVSAS
Q: Which results are given for B1?
A: glycan array binding signal (z-score) (Gal6S(b1-4)Glc6S): 0.678; glycan array binding signal (z-score) (Gal6S(b1-4)GlcNAc): -0.841; glycan array binding signal (z-score) (Gal6S(b1-4)GlcNAc6S): -0.885; glycan array binding signal (z-score) (GalNAc(a1-3)Gal): 1.21; glycan array binding signal (z-score) (GalNAc(a1-3)GalNAc): -0.836; glycan array binding signal (z-score) [1]: -0.265; glycan array binding signal (z-score) [2]: -0.546; glycan array binding signal (z-score) (GalNAc(b1-3)Gal): -0.611; glycan array binding signal (z-score) [3]: 0.692; glycan array binding signal (z-score) [4]: -0.068; glycan array binding signal (z-score) [5]: -0.31; glycan array binding signal (z-score) (GalNAc(b1-3)GalNAc): 0.568; glycan array binding signal (z-score) (GalNAc(b1-3)GlcNAc): 0.319; glycan array binding signal (z-score) (GalNAc(b1-4)Gal(b1-4)Glc): 2.93; glycan array binding signal (z-score) (GalNAc(b1-4)GlcNAc): 0.961; glycan array binding signal (z-score) [6]: 0.546; glycan array binding signal (z-score) [7]: -0.393; glycan array binding signal (z-score) [8]: -0.716; glycan array binding signal (z-score) (GalNAc(b1-4)GlcNAc6S): 0.894; glycan array binding signal (z-score) (GalNAc(b1-6)GalNAc): 0.35; glycan array binding signal (z-score) (GalNAc3S(b1-4)GlcNAc): 2.09; glycan array binding signal (z-score) (GalNAc3S(b1-4)GlcNAc3S): -0.924; glycan array binding signal (z-score) [9]: 0.061; glycan array binding signal (z-score) (GalNAc4S6S(b1-4)GlcNAc): -0.494; glycan array binding signal (z-score) (GalNAc6S(b1-4)GlcNAc): 0.113; glycan array binding signal (z-score) (Glc(a1-4)Glc): 0.46; glycan array binding signal (z-score) [10]: 0.871; glycan array binding signal (z-score) (Glc(a1-6)Glc(a1-6)Glc): -0.401; glycan array binding signal (z-score) [11]: 3.01; glycan array binding signal (z-score) (Glc(b1-4)Glc): 0.666; glycan array binding signal (z-score) (Glc(b1-6)Glc): -0.29; glycan array binding signal (z-score) (GlcA(b1-3)Gal): -0.942; glycan array binding signal (z-score) (GlcA(b1-3)GlcNAc): 1.87; glycan array binding signal (z-score) (GlcA(b1-6)Gal): 0.258; glycan array binding signal (z-score) [12]: -0.511; glycan array binding signal (z-score) [13]: 0.881; glycan array binding signal (z-score) [14]: -0.637; glycan array binding signal (z-score) [15]: -0.137; glycan array binding signal (z-score) [16]: 0.369; glycan array binding signal (z-score) [17]: -0.792; glycan array binding signal (z-score) [18]: -0.847; glycan array binding signal (z-score) [19]: -0.82; glycan array binding signal (z-score) [20]: -0.327; glycan array binding signal (z-score) [21]: -0.283; glycan array binding signal (z-score) [22]: 0.813
